Laboratory results: patent US20160297875A1 (CASE WESTERN RESERVE UNIVERSITY, published 2016)
These are yes or no findings as the source states them, for the method shown. Some entries that bind do so weakly or less than the wild type.

Sequences of proteins named here, by UniProt entry; tags and fusion partners are left off. Residues count along the entry.
UniProt P16671, residues 30-439: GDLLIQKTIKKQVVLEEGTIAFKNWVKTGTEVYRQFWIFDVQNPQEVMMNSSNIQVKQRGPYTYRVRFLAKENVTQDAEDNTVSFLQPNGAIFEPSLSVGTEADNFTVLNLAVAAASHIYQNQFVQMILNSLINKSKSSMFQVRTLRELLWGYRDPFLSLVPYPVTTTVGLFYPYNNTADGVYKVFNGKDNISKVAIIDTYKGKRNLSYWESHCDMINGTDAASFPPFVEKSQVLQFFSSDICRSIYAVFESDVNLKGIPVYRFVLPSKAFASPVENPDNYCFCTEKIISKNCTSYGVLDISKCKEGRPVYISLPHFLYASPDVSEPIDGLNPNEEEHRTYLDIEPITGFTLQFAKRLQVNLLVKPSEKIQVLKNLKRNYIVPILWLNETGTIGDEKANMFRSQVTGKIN

Experiments:
[1] = target: GST-CLESH (CD36 CLESH domain containing peptide, aa93-120, as GST fusion protein) (human); experiment: solid phase plate binding assay with recombinant CD36 peptides (GST fusions)
[2] = target: purified soluble CD36 (UniProt P16671); experiment: plate binding assay
[3] = target: GST-CLESH (CD36 CLESH domain containing peptide, aa93-120, as GST fusion protein) (human); experiment: plate binding assay, MRP14 1-5 µg/ml on sCD36, GST-CLESH or GST-control
[4] = target: purified soluble CD36 (UniProt P16671); experiment: plate binding assay, CD36 coated on wells, MRP-14 0-2.5 µg/ml, detection with anti-human MRP-14 antibody at 450 nm

binding [1]: binds
binding [2]: binds
binding [3]: binds
binding [4]: binds
B1: purified, recombinant human MRP-14 (ligand, UniProt P06702 1-114, looked up)
chain: MTCKMSQLERNIETIINTFHQYSVKLGHPDTLNQGEFKELVRKDLQNFLKKENKNEKVIEHIMEDLDTNADKQLSFEEFIMLMARLTWASHEKMHEGDEGPGHHHKPGLGEGTP
notes: Bought protein; also called purified MRP-14; purified human MRP-14 protein
